{
  "sequences": {"note": "Amino acid sequences for entries named in this document (tags omitted). Residues count along the entry.", "UniProt Q09118, residues 63-148": "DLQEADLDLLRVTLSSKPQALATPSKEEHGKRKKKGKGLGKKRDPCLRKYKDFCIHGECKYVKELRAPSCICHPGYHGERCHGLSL", "UniProt P00588, residues 33-567": "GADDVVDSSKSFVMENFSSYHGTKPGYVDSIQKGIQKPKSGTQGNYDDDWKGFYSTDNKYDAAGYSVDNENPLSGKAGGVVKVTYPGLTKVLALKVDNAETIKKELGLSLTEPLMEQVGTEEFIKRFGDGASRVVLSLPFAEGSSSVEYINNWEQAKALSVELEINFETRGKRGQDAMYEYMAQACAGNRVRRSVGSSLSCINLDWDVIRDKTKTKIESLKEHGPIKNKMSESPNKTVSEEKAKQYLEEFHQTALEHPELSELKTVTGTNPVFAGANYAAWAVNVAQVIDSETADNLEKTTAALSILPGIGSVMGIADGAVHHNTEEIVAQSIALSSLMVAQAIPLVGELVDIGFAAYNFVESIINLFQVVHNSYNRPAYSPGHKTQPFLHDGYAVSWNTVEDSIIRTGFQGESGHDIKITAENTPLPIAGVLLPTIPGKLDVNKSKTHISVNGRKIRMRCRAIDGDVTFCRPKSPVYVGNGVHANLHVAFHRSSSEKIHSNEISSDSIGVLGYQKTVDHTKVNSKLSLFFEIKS"},
  "source": "patent US20040152179A1",
  "about": "(US Dept. of Health and Human Services, published 2004)",
  "key": {"[1]": {"biological_target": "diphtheria toxin receptor on Cos-7 cells (monkey kidney) (monkey) (UniProt Q09118)", "assay": "cold competitor against I^125-labelled DT on Cos-7 cells"}, "[2]": {"biological_target": "diphtheria toxin receptor on Cos-7 cells (monkey kidney) (monkey) (UniProt Q09118)", "assay": "cold competitor against I^125-labelled DT, legend of FIG. 2"}},
  "note": "No constants are given. Whether binding was seen depends on the method and setting. Some binding calls cover weakened binding; strength is not graded here.",
  "data": [
    {"substance": "native diphtheria toxin (from UniProt P00588 33-567) (ligand)", "values": [
      {"measurement": "binding", "setting": "[1]", "value": "binds"},
      {"measurement": "binding", "setting": "[2]", "value": "binds"}
    ]}
  ]
}
